This test deals with T1, V5-tagged Zfp609 (mouse) (UniProt Q8BZ47).
T1 sequence: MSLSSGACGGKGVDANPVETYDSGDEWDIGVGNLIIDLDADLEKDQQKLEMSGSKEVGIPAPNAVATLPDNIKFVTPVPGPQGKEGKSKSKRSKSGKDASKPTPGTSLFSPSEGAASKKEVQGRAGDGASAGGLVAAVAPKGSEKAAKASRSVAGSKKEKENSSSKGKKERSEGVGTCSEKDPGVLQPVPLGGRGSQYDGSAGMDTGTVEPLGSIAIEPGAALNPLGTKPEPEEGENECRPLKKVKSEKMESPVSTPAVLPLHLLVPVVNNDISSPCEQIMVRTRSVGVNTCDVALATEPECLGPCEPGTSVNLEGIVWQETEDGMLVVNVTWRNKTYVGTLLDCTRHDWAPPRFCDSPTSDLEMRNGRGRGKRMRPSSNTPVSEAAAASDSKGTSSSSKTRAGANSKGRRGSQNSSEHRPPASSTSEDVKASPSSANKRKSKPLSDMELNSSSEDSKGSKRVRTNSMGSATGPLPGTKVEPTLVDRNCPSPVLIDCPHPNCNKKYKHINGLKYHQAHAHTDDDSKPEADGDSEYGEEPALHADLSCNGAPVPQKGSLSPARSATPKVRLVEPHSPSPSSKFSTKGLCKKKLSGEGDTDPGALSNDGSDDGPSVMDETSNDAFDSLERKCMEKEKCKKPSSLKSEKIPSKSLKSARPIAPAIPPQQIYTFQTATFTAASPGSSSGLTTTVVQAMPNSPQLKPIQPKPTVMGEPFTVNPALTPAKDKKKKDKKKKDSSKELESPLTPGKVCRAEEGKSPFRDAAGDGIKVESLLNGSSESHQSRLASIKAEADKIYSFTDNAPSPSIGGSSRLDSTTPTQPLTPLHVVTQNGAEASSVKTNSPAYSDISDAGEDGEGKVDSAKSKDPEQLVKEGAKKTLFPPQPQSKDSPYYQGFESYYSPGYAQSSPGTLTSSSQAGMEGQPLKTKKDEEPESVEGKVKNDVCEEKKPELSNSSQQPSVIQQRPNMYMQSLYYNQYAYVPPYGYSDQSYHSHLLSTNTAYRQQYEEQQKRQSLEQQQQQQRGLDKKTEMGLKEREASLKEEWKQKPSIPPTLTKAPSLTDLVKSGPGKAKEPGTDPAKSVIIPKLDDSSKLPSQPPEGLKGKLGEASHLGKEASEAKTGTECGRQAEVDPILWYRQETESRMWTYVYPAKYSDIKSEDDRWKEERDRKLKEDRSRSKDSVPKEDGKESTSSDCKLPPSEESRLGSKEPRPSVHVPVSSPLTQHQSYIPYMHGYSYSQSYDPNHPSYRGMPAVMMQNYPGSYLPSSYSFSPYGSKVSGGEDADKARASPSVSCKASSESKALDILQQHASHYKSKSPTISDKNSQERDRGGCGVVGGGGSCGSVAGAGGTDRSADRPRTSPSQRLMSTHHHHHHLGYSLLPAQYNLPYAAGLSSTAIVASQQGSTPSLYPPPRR
The test is described as follows: affinity purification with mass spectrometry; anti-V5 agarose beads on nuclear extract of Zfp609-V5-expressing NSCs, 3 hr at 4°C, 225 U Benzonase, washes in C-100* (100 mM KCl, 0.02% NP-40); NSCs not expressing Zfp609-V5 as control; hits present in two purifications.

These are yes or no findings as the source states them, for the method shown. Binding seen in cells or lysates may run through a third protein. These calls come from enrichment with a bait or labelling near it, and not all partners need be listed. Tags and fused reporters may be left off the sequences shown.

B1: Mau2 (protein, UniProt Q9D2X5 1-619)
chain: MAAQAAAAAQAAAAAQAAAAQAAQAEAAESWYLALLGFAEHFRTSSPPKIRLCVHCLQAVFPFKPPQRIEARTHLQLGSVLYHHTKNSEQARSHLEKAWLISQQIPQFEDVKFEAASLLSELYCQENSVDAAKPLLRKAIQISQQTPYWHCRLLFQLAQLHTLEKDLVSACDLLGVGAEYARVVGSEYTRALFLLSKGMLLLMERKLQEVHPLLTLCGQIVENWQGNPIQKESLRVFFLVLQVTHYLDAGQVKSVKPCLKQLQQCIQTISTLHDDEILPSNPADLFHWLPKEHMCVLVYLVTVMHSMQAGYLEKAQKYTDKALMQLEKLKMLDCSPILSSFQVILLEHIIMCRLVTGHKATALQEISQVCQLCQQSPRLFSNHAAQLHTLLGLYCVSVNCMDNAEAQFTTALRLTNHQELWAFIVTNLASVYIREGNRHQEVLYSLLERINPDHSFPVSSHCLRAAAFYVRGLFSFFQGRYNEAKRFLRETLKMSNAEDLNRLTACSLVLLGHIFYVLGNHRESNNMVVPAMQLASKIPDMSVQLWSSALLRDLNKACGNAMDAHEAAQMHQNFSQQLLQDHIEACSLPEHNLITWTDGPPPVQFQAQNGPNTSLASLL
On to B1, for which the binding result is on record as “binds”.

(Values after publication PMC5263256.)
